PubChem BioAssay AID652243, Drosophila RNAi Screening Center | 2013
Assay: 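Knock-downs that decrease or increase androgen receptor reporter signal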 (primary screen). Cell system: Drosophila S2R+ cells. Knock-down reagent: long dsRNA against Drosophila genes. Timing: 72 h (48 h, then 24 h hormone). Treatment: synthetic androgen R1881 at 10 nM for 24 h. Read-out: 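Firefly light from an androgen-responsive reporter and Renilla control light per well, raw and unnormalised, for each of two replicates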. Reading the numbers: firefly reporter light: higher = more light from androgen-responsive reporter; Renilla control light: higher = more constitutive control signal (cell number, transfection). Hit rule: 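Across duplicate plates, a knock-down whose log firefly/Renilla ratio shifted a set fold down or up from the GFP/LacZ control mean was a hit; the downward cut appears as both 1.5 and 3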. Meaning of the calls: active = hit: reporter lowered or raised; inactive = no hit.
In all, the deposit lists about 24,000 reagents; shown is an unselected part of those that have a named target and a result. In the full data, 246 (1%) got an active call. 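Plates not normalised; calls are printed but the firefly/Renilla ratio behind them is not deposited; fold cut for lowering reported inconsistently.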 Raw values are not corrected between plates. A number with no mark means an inactive call. The numbers tell different reagents against one gene apart. Names joined by + are all predicted targets of the reagent. No sequences are given here. Not stated in the record: the amount of reagent.

What did the screen give for CG10013?
firefly reporter light, replicate 1: 50838; firefly reporter light, replicate 2: 53761; Renilla control light, replicate 1: 4.61e5; Renilla control light, replicate 2: 4.82e5

How did the screen score CG31883?
firefly reporter light, replicate 1: 1.42e6; firefly reporter light, replicate 2: 1.13e6; Renilla control light, replicate 1: 3.29e6; Renilla control light, replicate 2: 2.52e6

With CG15439 #1, what was measured?
firefly reporter light, replicate 1: 2.69e5; firefly reporter light, replicate 2: 3.40e5; Renilla control light, replicate 1: 2.46e6; Renilla control light, replicate 2: 3.53e6

For CG15439 #2, what does the deposit list?
firefly reporter light, replicate 1: 4.48e5; firefly reporter light, replicate 2: 4.96e5; Renilla control light, replicate 1: 9.40e5; Renilla control light, replicate 2: 1.30e6

For CG7379 #1, what was measured?
firefly reporter light, replicate 1: 6.06e5; firefly reporter light, replicate 2: 9.44e5; Renilla control light, replicate 1: 1.64e6; Renilla control light, replicate 2: 2.24e6

What is on record for CG7379 #2?
firefly reporter light, replicate 1: 6.24e5; firefly reporter light, replicate 2: 7.72e5; Renilla control light, replicate 1: 6.30e5; Renilla control light, replicate 2: 8.54e5

How did the screen score CG3655 #1?
firefly reporter light, replicate 1: 1.98e5; firefly reporter light, replicate 2: 2.58e5; Renilla control light, replicate 1: 3.78e6; Renilla control light, replicate 2: 3.21e6

For CG3655 #2, what was measured?
firefly reporter light, replicate 1: 1.11e5; firefly reporter light, replicate 2: 1.82e5; Renilla control light, replicate 1: 2.64e6; Renilla control light, replicate 2: 2.39e6

What is on record for CG3655 #3?
firefly reporter light, replicate 1: 3.27e5; firefly reporter light, replicate 2: 2.61e5; Renilla control light, replicate 1: 1.51e6; Renilla control light, replicate 2: 1.43e6

With Coq9, what was measured?
firefly reporter light, replicate 1: 4.52e5; firefly reporter light, replicate 2: 1.12e6; Renilla control light, replicate 1: 1.47e6; Renilla control light, replicate 2: 2.53e6

What is on record for Ide?
firefly reporter light, replicate 1: 32059; firefly reporter light, replicate 2: 27483; Renilla control light, replicate 1: 4.64e5; Renilla control light, replicate 2: 4.46e5

3 of these entries, reformatted.
target gene	reagent no.	firefly reporter light, replicate 1	firefly reporter light, replicate 2	Renilla control light, replicate 1	Renilla control light, replicate 2
CG7379	1	6.06e5	9.44e5	1.64e6	2.24e6
CG7379	2	6.24e5	7.72e5	6.30e5	8.54e5
CG3655	1	1.98e5	2.58e5	3.78e6	3.21e6

Next entries follow:
For nopo, what does the deposit list?
firefly reporter light, replicate 1: 8.14e5; firefly reporter light, replicate 2: 8.57e5; Renilla control light, replicate 1: 1.97e6; Renilla control light, replicate 2: 1.56e6

What did the screen give for Gs1l?
firefly reporter light, replicate 1: 94568; firefly reporter light, replicate 2: 1.17e5; Renilla control light, replicate 1: 7.95e5; Renilla control light, replicate 2: 7.02e5

For CG1889 + CG43386, what does the deposit list?
firefly reporter light, replicate 1: 2.94e5; firefly reporter light, replicate 2: 3.48e5; Renilla control light, replicate 1: 1.65e6; Renilla control light, replicate 2: 2.35e6

For CG5768, what was measured?
firefly reporter light, replicate 1: 94477; firefly reporter light, replicate 2: 1.03e5; Renilla control light, replicate 1: 7.69e5; Renilla control light, replicate 2: 8.08e5

With Uvrag, how do the results read?
firefly reporter light, replicate 1: 7.45e5; firefly reporter light, replicate 2: 1.00e6; Renilla control light, replicate 1: 2.25e6; Renilla control light, replicate 2: 2.39e6

With CG32188 + CG32189, what does the deposit list?
firefly reporter light, replicate 1: 9.93e5; firefly reporter light, replicate 2: 1.10e6; Renilla control light, replicate 1: 1.35e6; Renilla control light, replicate 2: 1.25e6

What did the screen give for CG10973?
firefly reporter light, replicate 1: 1.13e6; firefly reporter light, replicate 2: 5.33e5; Renilla control light, replicate 1: 1.38e6; Renilla control light, replicate 2: 1.16e6

For dwg #1, what does the deposit list?
firefly reporter light, replicate 1: 1.99e5; firefly reporter light, replicate 2: 1.18e5; Renilla control light, replicate 1: 9.11e5; Renilla control light, replicate 2: 6.34e5

For dwg #2, what does the deposit list?
firefly reporter light, replicate 1: 6.85e5; firefly reporter light, replicate 2: 5.82e5; Renilla control light, replicate 1: 1.06e6; Renilla control light, replicate 2: 9.78e5

With CG16786, what was measured?
firefly reporter light, replicate 1: 3.91e5; firefly reporter light, replicate 2: 3.59e5; Renilla control light, replicate 1: 3.19e6; Renilla control light, replicate 2: 2.45e6
